Data taken from patent US20190037848A1, “Novel isothiazolamides, processes for their preparation and their use as herbicides and/or plant growth regulators” (BAYER CROPSCIENCE AKTIENGESELLSCHAFT, priority 2014, published 2019).
Some of these results come from one statement about several compounds together. Some ranges recur; such a range may be that of the whole group of compounds.

Key:
[1] = system: harmful plants ALOMY, AVEFA, ECHCG, LOLMU, SETVI, ABUTH, AMARE, MATIN, PHBPU, POLCO, STEME, VIOTR, VERPE; test: Herbicidal pre-emergence action (greenhouse pot test); format: in vivo; conditions: pre-emergence method, against several harmful plants; for very good activity (herbicidal): 80 g of active substance per hectare; for excellent activity (herbicidal): 320 g of active substance per hectare
[2] = system: harmful plants ALOMY, AVEFA, ECHCG, LOLMU, SETVI, ABUTH, AMARE, MATIN, PHBPU, POLCO, STEME, VIOTR, VERPE; test: Herbicidal post-emergence action (greenhouse pot test); format: in vivo; conditions: post-emergence method, against several harmful plants; for very good activity (herbicidal): 80 g of active substance per hectare; for excellent activity (herbicidal): 320 g of active substance per hectare

| Structure (SMILES) | very good activity (herbicidal) [1] | excellent activity (herbicidal) [1] | very good activity (herbicidal) [2] | excellent activity (herbicidal) [2] |
| --- | --- | --- | --- | --- |
| COCC(=O)N(C(=O)COC)c1nsc(C(=O)NCC2CCCCC2)c1Cl [II-225] | 80-100% | 90-100% | 80-100% | 90-100% |
| CCCCC(=O)Nc1nsc(C(=O)NCC2CCCCC2)c1Cl [II-233, 4-chloro-N-(cyclohexylmethyl)-3-(pentanoylamino)isothiazole-5-carboxamide] | 80-100% | 90-100% | 80-100% | 90-100% |
| CCC(=O)N(C(=O)CC)c1nsc(C(=O)NCC2CCCCC2)c1F [II-248] | 80-100% | 90-100% | 80-100% | 90-100% |
| O=C(NCC1CCCCC1)c1snc(N(C(=O)C(Cl)(Cl)Cl)C(=O)C(Cl)(Cl)Cl)c1F [II-249] | 80-100% | 90-100% | 80-100% | 90-100% |
| O=C(NCC1CCCCC1)c1snc(N(C(=O)C(F)(F)F)C(=O)C(F)(F)F)c1F [II-251] | 80-100% | 90-100% | 80-100% | 90-100% |
| O=C(NCC1CCCCC1)c1snc(NC(=O)C(F)(Cl)C(F)(F)F)c1F (centres unmarked) [II-255] | 80-100% | 90-100% | 80-100% | 90-100% |
| CC(Br)C(=O)Nc1nsc(C(=O)NCC2CCCCC2)c1F (centres unmarked) [II-256] | 80-100% | 90-100% | 80-100% | 90-100% |
| COCC(=O)Nc1nsc(C(=O)NCC2CCCCC2)c1F [II-257] | 80-100% | 90-100% | 80-100% | 90-100% |
| CCC(=O)Nc1nsc(C(=O)NCC2CCCCC2)c1F [II-258] | 80-100% | 90-100% | 80-100% | 90-100% |
| O=C(NCC1CCCCC1)c1snc(NC(=O)C(F)(F)F)c1F [II-259] | 80-100% | 90-100% | 80-100% | 90-100% |
| O=C(CCl)Nc1nsc(C(=O)NCC2CCCCC2)c1F [II-260] | 80-100% | 90-100% | 80-100% | 90-100% |
| O=C(NCC1CCCCC1)c1snc(NC(=O)C(F)(F)C(F)F)c1F [II-261] | 80-100% | 90-100% | 80-100% | 90-100% |
| O=C(NCC1CCCC1)c1snc(NC(=O)C(F)F)c1F [II-264] | 80-100% | 90-100% | 80-100% | 90-100% |
| CCC(=O)Nc1nsc(C(=O)NCC2CCCCCC2)c1F [II-265] | 80-100% | 90-100% | 80-100% | 90-100% |
| CCC(=O)N(C(=O)CC)c1nsc(C(=O)NCC2CCCCCC2)c1F [II-266] | 80-100% | 90-100% | 80-100% | 90-100% |
| CCC(=O)Nc1nsc(C(=O)NCc2cc(F)c(F)cc2F)c1F [II-281] | 80-100% | 90-100% | 80-100% | 90-100% |
| O=C(NCc1cc(F)c(F)cc1F)c1snc(NC(=O)C(F)(F)F)c1F [II-282] | 80-100% | 90-100% | 80-100% | 90-100% |
| O=C(CC(F)(F)F)Nc1nsc(C(=O)NCc2cc(F)c(F)cc2F)c1F [II-283] | 80-100% | 90-100% | 80-100% | 90-100% |
| CC(=O)N(C(C)=O)c1nsc(C(=O)NCc2cc(F)c(F)cc2F)c1F [II-284] | 80-100% | 90-100% | 80-100% | 90-100% |
| O=C(NCc1cc(F)c(F)cc1F)c1snc(NC(=O)C(F)F)c1F [II-286] | 80-100% | 90-100% | 80-100% | 90-100% |
| O=C(NCc1cc(F)c(F)cc1F)c1snc(NC(=O)C(F)(F)C(F)F)c1F [II-288] | 80-100% | 90-100% | 80-100% | 90-100% |
| O=C(NCc1cc(F)c(F)cc1F)c1snc(NC(=O)C(F)(F)C(F)(F)F)c1F [II-289] | 80-100% | 90-100% | 80-100% | 90-100% |
| COCC(=O)Nc1nsc(C(=O)NCc2ccc(F)c(F)c2F)c1F [II-290] | 80-100% | 90-100% | 80-100% | 90-100% |
| O=C(CCl)Nc1nsc(C(=O)NCc2ccc(F)c(F)c2F)c1F [II-294] | 80-100% | 90-100% | 80-100% | 90-100% |
| O=C(NCc1ccc(F)c(F)c1F)c1snc(NC(=O)C(F)(F)F)c1F [II-297] | 80-100% | 90-100% | 80-100% | 90-100% |
| O=C(CC(F)(F)F)Nc1nsc(C(=O)NCc2c(F)cc(F)cc2F)c1F [II-299] | 80-100% | 90-100% | 80-100% | 90-100% |
| O=C(NCc1c(F)cc(F)cc1F)c1snc(NC(=O)C(F)(F)C(F)(F)F)c1F [II-301] | 80-100% | 90-100% | 80-100% | 90-100% |
| O=C(NCc1c(F)cc(F)cc1F)c1snc(NC(=O)C(F)(F)C(F)F)c1F [II-302] | 80-100% | 90-100% | 80-100% | 90-100% |
| O=C(NCc1c(F)cc(F)cc1F)c1snc(NC(=O)C(F)F)c1F [II-303] | 80-100% | 90-100% | 80-100% | 90-100% |
